Patent publication US20200283521A1
Where a chain is given by its changes, count along the chain named. No constants are given. Whether binding was seen depends on the method and setting. Some results given as binding are weak or reduced against the parent protein; the word gives no strength. Each block holds one binder with its values, some of them ahead of it.

Amino acid sequences for entries named in this document (tags omitted). A change or cut given only in a name is not applied to a line headed by its entry. Chains listed by the source or under a name are the forms on record and can include a tag or linker.
human C-KIT short isoform (NM_001093772) on HEK293 cells (P10721, form named): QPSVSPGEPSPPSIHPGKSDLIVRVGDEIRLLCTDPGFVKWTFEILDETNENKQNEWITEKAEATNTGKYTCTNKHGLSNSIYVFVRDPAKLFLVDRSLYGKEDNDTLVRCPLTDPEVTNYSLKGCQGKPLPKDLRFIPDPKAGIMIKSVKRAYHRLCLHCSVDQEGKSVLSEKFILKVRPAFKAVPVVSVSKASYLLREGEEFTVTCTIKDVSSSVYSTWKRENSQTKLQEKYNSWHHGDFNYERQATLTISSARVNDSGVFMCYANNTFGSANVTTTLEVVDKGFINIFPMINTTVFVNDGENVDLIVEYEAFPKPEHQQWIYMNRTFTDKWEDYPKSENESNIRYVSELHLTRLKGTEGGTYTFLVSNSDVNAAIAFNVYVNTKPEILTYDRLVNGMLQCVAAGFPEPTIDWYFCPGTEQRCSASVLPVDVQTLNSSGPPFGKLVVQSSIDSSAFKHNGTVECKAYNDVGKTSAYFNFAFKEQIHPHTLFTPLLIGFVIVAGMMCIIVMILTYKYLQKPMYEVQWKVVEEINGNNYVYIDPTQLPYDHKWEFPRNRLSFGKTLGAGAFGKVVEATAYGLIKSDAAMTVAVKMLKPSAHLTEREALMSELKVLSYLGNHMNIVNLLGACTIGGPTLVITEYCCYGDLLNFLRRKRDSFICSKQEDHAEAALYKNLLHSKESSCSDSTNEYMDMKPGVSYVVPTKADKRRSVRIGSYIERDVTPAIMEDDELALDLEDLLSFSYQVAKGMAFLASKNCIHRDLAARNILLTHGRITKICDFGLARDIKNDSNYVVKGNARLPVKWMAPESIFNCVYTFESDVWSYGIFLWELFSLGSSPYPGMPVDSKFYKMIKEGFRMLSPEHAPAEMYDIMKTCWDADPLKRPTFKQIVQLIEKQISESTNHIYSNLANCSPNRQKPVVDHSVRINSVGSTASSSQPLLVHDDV

Key:
human C-KIT-Fc (human) [1] = target: human C-KIT-Fc (human) (UniProt P10721); assay: direct ELISA at 1 µg/ml
[2] = target: human C-KIT short isoform (NM_001093772) on HEK293 cells (human) (UniProt P10721); assay: cell array, HEK293
[3] = target: human C-KIT canonical isoform (NM_000222.2) on HEK293 cells (human) (UniProt P10721); assay: cell array, HEK293
human C-KIT-Fc (human) [4] = target: human C-KIT-Fc (human) (UniProt P10721); assay: direct ELISA
[5] = target: human C-KIT canonical isoform (NM_000222.2) on HEK293 cells (human) (UniProt P10721); assay: cell array, HEK293 re-array
[6] = target: human C-KIT, full length, on cells (human) (UniProt P10721); assay: flow cytometry, C-KIT-transfected CHO-K1 cells, IgG1 format
[7] = target: human C-KIT, full length, on cells (human) (UniProt P10721); assay: flow cytometry, CHO-K1 transfectants
human C-KIT-Fc (human) [8] = target: human C-KIT-Fc (human) (UniProt P10721); assay: direct titration ELISA on coated C-KIT-Fc, IgG1 format
human C-KIT-Fc (human) [9] = target: human C-KIT-Fc (human) (UniProt P10721); assay: HTRF epitope competition in solution; unlabelled h37M IgG1-3M titrated against terbium-labelled h37M IgG1 on biotinylated human C-KIT-Fc
human C-KIT-Fc (human) [10] = target: human C-KIT-Fc (human) (UniProt P10721); assay: HTRF competition on human C-KIT-Fc against terbium-labelled h37M IgG1
human C-KIT-Fc (human) [11] = target: human C-KIT-Fc (human) (UniProt P10721); assay: HTRF competition vs labelled h37M IgG
human C-KIT-Fc (human) [12] = target: human C-KIT-Fc (human) (UniProt P10721); assay: HTRF epitope competition in solution; competitor IgG1-3M titrated against terbium-labelled h37M IgG1 on biotinylated human C-KIT-Fc

B4: E-G7 (antibody, IgG1, V domains shown)
VH: QVQLVQSGAEVKKPGASVKVSCKASGYTFTDYYMNWVRQAPGQGLEWMGRIYPGSGNTYYAQKFQGRVTMTRDTSTSTVYMELSSLRSEDTAVYYCARGVYYFDEWGQGTLVTVSS
VL: DIQMTQSPSSLSASVGDRVTITCRASQGVRTNVAWFQQKPGKAPKSLIYSASSRQSGVPSRFSGSGSGTDFTLTISSLQPEDFATYYCQQYNSYPRTFGGGTKVEIK
binding (human C-KIT-Fc (human) [4]): binds | binding [6]: binds | binding (human C-KIT-Fc (human) [10]): binds

B5: D-A10 (antibody, IgG1, V domains shown)
VH: B4 VH with E105T
VL: B4 VL with V33L, S50A
binding (human C-KIT-Fc (human) [4]): binds | binding [6]: binds

B6: F-B11 (antibody, IgG1, V domains shown)
VH: B4 VH with F103L, E105Y
VL: B4 VL with V29I, V33L, S50A, S53Y
binding (human C-KIT-Fc (human) [4]): binds | binding [6]: binds | binding (human C-KIT-Fc (human) [10]): binds

B8: E-E10 (antibody, IgG1, V domains shown)
VH: B4 VH with Y101W, E105Y
VL: B4 VL with R54L
binding (human C-KIT-Fc (human) [4]): binds | binding [6]: binds

B9: D-D5 (antibody, IgG1, V domains shown)
VH: B4 VH with F103Y, E105Y
VL: B4 VL with V33L, R54L
binding (human C-KIT-Fc (human) [4]): binds | binding [6]: binds | binding (human C-KIT-Fc (human) [10]): binds

B10: D-D9 (antibody, IgG1, V domains shown)
VH: B4 VH with F103L, E105Y
VL: B4 VL with R54L
binding (human C-KIT-Fc (human) [4]): binds | binding [6]: binds | binding (human C-KIT-Fc (human) [10]): binds

B12: C-A7 (antibody, IgG1, V domains shown)
VH: B4 VH with M48I, E105S
VL: B4 VL with T31N, S50Y, R54L
binding (human C-KIT-Fc (human) [4]): binds | binding [6]: binds

B13: C-B12 (antibody, IgG1, V domains shown)
VH: B4 VH with Y102E, E105Y
VL: B4 VL with T31N, V33L, S50A, S53Y
binding (human C-KIT-Fc (human) [4]): binds | binding [6]: binds

B16: C-A5 (antibody, IgG1, V domains shown)
VH: B4 VH with Y102H, E105Y
VL: B4 VL with T31N, S50A, S53Y, R54L
binding (human C-KIT-Fc (human) [4]): binds | binding [6]: binds | binding (human C-KIT-Fc (human) [10]): binds

Second part, the binder after the results:

binding (human C-KIT-Fc (human) [1]): binds | binding [2]: binds | binding [3]: binds | binding (human C-KIT-Fc (human) [4]): binds | binding [5]: binds | binding [6]: binds | binding [7]: binds | binding (human C-KIT-Fc (human) [8]): binds
B1: humanized h37M, human IgG1 (antibody, V domains shown)
VH: QVQLVQSGAEVKKPGASVKLSCKASGYTFTDYYINWVRQAPGKGLEWIARIYPGSGNTYYNEKFKGRATLTADKSTSTAYMQLSSLRSEDTAVYFCARGVYYFDYWGQGTTVTVSS
VL: DIVMTQSPSSLSASVGDRVTITCKASQNVRTNVAWYQQKPGKAPKALIYSASYRYSGVPDRFTGSGSGTDFTLTISSLQPEDFADYFCQQYNSYPRTFGGGTKVEIK

binding (human C-KIT-Fc (human) [9]): binds
B2: h37M-IgG1-3M (antibody, V domains shown)
VH: B1 VH
VL: B1 VL

binding (human C-KIT-Fc (human) [1]): binds | binding (human C-KIT-Fc (human) [4]): binds | binding [6]: binds | binding [7]: binds
B3: MH5.22 (antibody, IgG1, V domains shown)
VH: B4 VH with Y32F, G54A, Y101W, F103Y, E105Y
VL: B4 VL with V29I, V33L, S50A, R54L, N92A, S93N

binding (human C-KIT-Fc (human) [11]): binds | binding (human C-KIT-Fc (human) [12]): binds
B7: MH5, IgG1-3M format (antibody, V domains shown)
VH: B4 VH with F103Y, E105Y
VL: B4 VL with V29I, V33L, R54L, N92A, S93N

binding (human C-KIT-Fc (human) [11]): binds | binding (human C-KIT-Fc (human) [12]): binds
B11: MH1, IgG1-3M format (antibody, V domains shown)
VH: B4 VH with F103Y, E105Y
VL: B4 VL with V29I, V33L, S50A, R54L

binding (human C-KIT-Fc (human) [4]): binds | binding [6]: binds | binding (human C-KIT-Fc (human) [10]): binds
B14: MH15 (antibody, IgG1, V domains shown)
VH: B4 VH with F103L, E105Y
VL: B4 VL with V33L, S50A, R54L, S93A

binding (human C-KIT-Fc (human) [4]): binds | binding [6]: binds | binding (human C-KIT-Fc (human) [10]): binds
B15: MH14 (antibody, IgG1, V domains shown)
VH: B4 VH with F103L, E105Y
VL: B4 VL with V33L, S50A, R54L

binding (human C-KIT-Fc (human) [4]): binds | binding [6]: binds
B17: F-F2 (antibody, IgG1, V domains shown)
VH: B4 VH with F103Q, E105Y
VL: B4 VL with S50A
